Assay results as given in PubChem BioAssay (NCATS).
This list was built around the results that the source calls inconclusive (neither active nor inactive); the mix of calls is not that of the screen. Calls follow the shape of the dose curve; as a rule, active = well fitted inhibition curve with a large enough effect; inconclusive = small, poorly fitted or top-dose-only effect; inactive = no such curve, though single readings can be large or run the other way. Where the call is inconclusive, the potency comes from a doubtful curve fit.

Protein sequences, listed by entry. Tags and fused reporters are not part of them.
UniProt P27695, whole entry, looked up: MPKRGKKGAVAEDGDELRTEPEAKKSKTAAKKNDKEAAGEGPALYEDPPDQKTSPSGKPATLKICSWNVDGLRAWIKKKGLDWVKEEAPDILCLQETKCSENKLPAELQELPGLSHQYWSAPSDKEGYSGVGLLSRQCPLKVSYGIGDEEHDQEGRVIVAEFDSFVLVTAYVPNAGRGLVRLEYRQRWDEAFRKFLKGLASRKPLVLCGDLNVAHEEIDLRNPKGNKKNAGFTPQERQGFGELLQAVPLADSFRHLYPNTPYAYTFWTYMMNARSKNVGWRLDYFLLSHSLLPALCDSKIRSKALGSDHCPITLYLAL

What was measured:
[1] = Counterscreen for APE1 Inhibitors: Fluorescent Dye Displacement Assay (AID 2564);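 also: loss of thiazole orange fluorescence as the dye is displaced from duplex DNA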
Summary of the method: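 Thiazole Orange (250 nM) bound to 50 nM TAMRA-labelled dsDNA with tetrahydrofuran abasic site; displacement by DNA-binding compounds lowers fluorescence. Buffer 50 mM Tris-HCl pH 7.5, 50 mM NaCl, 2 mM MgCl2, 0.01% Tween-20; endpoint read at 480/540 nm.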

[2] = target: DNA repair nuclease/redox regulator APEX1 (Homo sapiens) (UniProt P27695); test: Confirmation qHTS Assay for Inhibitors of the Human Apurinic/apyrimidinic Endonuclease 1 (APE1) (AID 2572); also: nearly all actives have a fitted effect of over 30% in size
Summary of the method: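 Enzyme preincubated 15 min at room temperature with compound; reaction started with 50 nM final double-stranded THF abasic-site substrate (5'-TAMRA, 3'-BHQ-2). Fluorescence read kinetically (525/598 nm); third-minus-first read difference gives reaction progress.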

[3] = qHTS for Inhibitors of WRN Helicase: Thiazole Orange DNA Binding Counterscreen (AID 720499);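 also: drop in dye fluorescence marks compound binding to DNA; nearly all actives have a fitted effect of over 60% in size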
Summary of the method: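 After pintool transfer of compounds into a thiazole orange/DNA mixture (100 nM and 50 nM respectively) and 15 min at room temperature, plates were imaged for fluorescence at 530 nm emission, 480 nm excitation.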

Measured: Potency
Potency is read from the fitted curve at half-maximal effect.

O=C1/C(=C/C=C/c2ccco2)SC(=S)N1c1ccc(O)cc1
inconclusive: [1] 12.6 µM [inhibitor, single point] | [2] 15.8 µM [inhibitor, partial curve, poor fit] | [3] 27.1 µM [inhibitor, partial curve]
